Results are given in words; binding and its absence hold for the method and conditions named. For part of these data: Binding seen in cells or lysates may run through a third protein. Some results given as binding are weak or reduced against the parent protein; the word gives no strength. For part of these data: Where a sequence is shown, tags or fusion partners need not be part of it.
Tests used:
[1] = molecular target: T1, contactin-1 (CNTN1), overexpressed (human) (UniProt Q12860); test: co-IP; HEK293 cells transfected with the indicated plasmids for 24 h; NP-40 lysis buffer (20 mM Tris-HCl pH 7.5, 150 mM NaCl, 1% NP-40, 1 mM EDTA); 4 h at 4°C; beads washed with lysis buffer containing 500 mM NaCl; also in CNTN1+/+ or CNTN1-/- cells (Fig 6I) and MAVS+/+ cells (Fig 6J)
T1 sequence: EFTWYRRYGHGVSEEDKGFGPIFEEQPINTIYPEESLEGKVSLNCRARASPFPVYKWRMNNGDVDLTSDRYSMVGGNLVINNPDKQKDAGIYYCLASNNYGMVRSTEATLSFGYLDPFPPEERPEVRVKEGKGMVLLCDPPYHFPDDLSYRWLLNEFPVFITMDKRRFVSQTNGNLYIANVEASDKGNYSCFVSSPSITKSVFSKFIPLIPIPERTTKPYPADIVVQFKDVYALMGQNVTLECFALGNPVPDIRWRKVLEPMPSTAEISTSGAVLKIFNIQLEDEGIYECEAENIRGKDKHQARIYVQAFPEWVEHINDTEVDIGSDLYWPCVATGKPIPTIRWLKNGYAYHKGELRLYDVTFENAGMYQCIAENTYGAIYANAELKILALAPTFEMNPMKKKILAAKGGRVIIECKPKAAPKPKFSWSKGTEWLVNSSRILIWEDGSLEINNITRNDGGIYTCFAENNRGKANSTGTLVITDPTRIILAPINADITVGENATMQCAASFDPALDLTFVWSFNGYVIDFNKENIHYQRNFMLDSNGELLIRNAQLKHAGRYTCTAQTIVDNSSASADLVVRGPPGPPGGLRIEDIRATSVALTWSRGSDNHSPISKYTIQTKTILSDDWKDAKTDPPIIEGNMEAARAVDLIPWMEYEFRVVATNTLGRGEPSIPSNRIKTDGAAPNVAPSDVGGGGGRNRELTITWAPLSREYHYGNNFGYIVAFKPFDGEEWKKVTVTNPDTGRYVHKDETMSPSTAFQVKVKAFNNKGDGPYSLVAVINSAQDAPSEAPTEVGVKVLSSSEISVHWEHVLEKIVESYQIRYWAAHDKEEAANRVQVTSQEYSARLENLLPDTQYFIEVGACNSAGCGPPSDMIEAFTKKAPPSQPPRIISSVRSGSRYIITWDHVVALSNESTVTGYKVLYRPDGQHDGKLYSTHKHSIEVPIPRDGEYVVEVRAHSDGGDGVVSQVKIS

Chains of the proteins cited; added tags and fusions are not shown.
UniProt Q9UHP3: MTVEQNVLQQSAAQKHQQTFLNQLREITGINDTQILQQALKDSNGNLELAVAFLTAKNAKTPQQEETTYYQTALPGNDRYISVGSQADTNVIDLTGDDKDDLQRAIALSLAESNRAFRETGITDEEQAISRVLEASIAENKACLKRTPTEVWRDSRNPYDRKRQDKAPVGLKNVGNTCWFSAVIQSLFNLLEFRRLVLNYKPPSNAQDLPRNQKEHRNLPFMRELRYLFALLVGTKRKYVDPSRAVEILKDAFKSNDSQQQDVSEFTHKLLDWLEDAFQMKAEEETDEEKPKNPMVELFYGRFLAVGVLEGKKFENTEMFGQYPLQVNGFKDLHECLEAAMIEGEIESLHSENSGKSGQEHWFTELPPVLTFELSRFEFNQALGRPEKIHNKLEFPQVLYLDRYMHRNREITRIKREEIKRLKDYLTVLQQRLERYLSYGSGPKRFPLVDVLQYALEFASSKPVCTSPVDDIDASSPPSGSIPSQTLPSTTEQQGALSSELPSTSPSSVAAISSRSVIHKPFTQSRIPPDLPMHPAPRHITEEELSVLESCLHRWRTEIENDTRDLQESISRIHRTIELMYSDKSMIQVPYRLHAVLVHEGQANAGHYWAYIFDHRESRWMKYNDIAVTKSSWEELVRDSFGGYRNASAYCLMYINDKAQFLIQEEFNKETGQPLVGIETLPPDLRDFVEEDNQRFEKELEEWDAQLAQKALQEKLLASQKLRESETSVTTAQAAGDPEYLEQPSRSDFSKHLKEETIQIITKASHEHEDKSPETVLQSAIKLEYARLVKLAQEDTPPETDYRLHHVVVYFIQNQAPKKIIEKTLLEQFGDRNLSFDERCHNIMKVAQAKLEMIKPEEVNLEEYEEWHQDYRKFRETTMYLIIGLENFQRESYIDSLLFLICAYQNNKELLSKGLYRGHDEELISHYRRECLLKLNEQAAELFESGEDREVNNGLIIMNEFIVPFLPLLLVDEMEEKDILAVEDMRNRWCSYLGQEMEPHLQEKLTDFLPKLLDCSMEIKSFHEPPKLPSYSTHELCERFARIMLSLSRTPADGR
UniProt Q7Z434: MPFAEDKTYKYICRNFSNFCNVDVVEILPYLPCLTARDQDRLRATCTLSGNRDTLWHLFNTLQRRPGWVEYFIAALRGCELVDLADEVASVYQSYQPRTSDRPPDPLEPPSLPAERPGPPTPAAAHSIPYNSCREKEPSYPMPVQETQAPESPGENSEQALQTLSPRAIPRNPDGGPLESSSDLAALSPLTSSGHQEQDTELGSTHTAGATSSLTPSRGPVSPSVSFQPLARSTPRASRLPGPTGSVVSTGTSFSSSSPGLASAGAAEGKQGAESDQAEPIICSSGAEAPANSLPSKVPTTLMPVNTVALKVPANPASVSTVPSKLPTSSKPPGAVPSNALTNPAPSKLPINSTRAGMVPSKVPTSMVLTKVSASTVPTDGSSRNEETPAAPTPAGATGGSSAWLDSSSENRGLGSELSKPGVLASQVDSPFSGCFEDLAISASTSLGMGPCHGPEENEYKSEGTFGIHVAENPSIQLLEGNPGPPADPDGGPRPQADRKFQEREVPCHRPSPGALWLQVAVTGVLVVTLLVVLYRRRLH

Flag-USP25 = Flag-USP25 (UniProt Q9UHP3); test: as above
GST-CNTN1 (human) = molecular target: T2, GST-CNTN1 (human) (UniProt Q12860); test: pull-down; 1 μg purified GST fusion protein captured on Glutathione-Sepharose 4B beads, His-tagged fusion protein added overnight at 4°C; washed three times with ice-cold PBS; immunoblotting; both purified
T2 sequence: T1 sequence

[2] = molecular target: T3, endogenous CNTN1 (human (endogenous in HEK293)) (UniProt Q12860); test: co-IP
T3 sequence: T1 sequence

[3] = molecular target: endogenous USP25 (human (endogenous in HEK293)) (UniProt Q9UHP3); test: co-IP
Flag-CNTN1 (human) = molecular target: T4, Flag-CNTN1 (human) (UniProt Q12860); test: co-IP; HEK293 cells transfected with the indicated plasmids for 24 h; NP-40 lysis buffer (20 mM Tris-HCl pH 7.5, 150 mM NaCl, 1% NP-40, 1 mM EDTA); 4 h at 4°C; beads washed with lysis buffer containing 500 mM NaCl; also in CNTN1+/+ or CNTN1-/- cells (Fig 6I) and MAVS+/+ cells (Fig 6J)
T4 sequence: T1 sequence

Q: Which binding [1] does the source give for “Flag-USP25 (from UniProt Q9UHP3 1-1055) (enzyme)” here?
A: binds

Q: Which binding (Flag-USP25) does the source give for HA-MAVS (from UniProt Q7Z434 1-540) here?
A: binds

Q: “His-USP25 (from UniProt Q9UHP3 1-1055) (enzyme)” was tested. Which binding (GST-CNTN1 (human)) did it give?
A: binds

Q: How did the binding [1] turn out when “MAVS, overexpressed (from UniProt Q7Z434 1-540)” was run?
A: binds

Q: How did the binding [2] turn out when “endogenous MAVS (from UniProt Q7Z434 1-540)” was run?
A: binds

Q: What about the binding [3] of the same molecule?
A: binds

Q: Which binding [2] does the source give for “endogenous USP25 (from UniProt Q9UHP3 1-1055) (enzyme)” here?
A: binds

Q: And the binding (Flag-CNTN1 (human))?
A: binds

B1: RIG-I, overexpressed (protein, UniProt O95786 1-925)
chain: MTTEQRRSLQAFQDYIRKTLDPTYILSYMAPWFREEEVQYIQAEKNNKGPMEAATLFLKFLLELQEEGWFRGFLDALDHAGYSGLYEAIESWDFKKIEKLEEYRLLLKRLQPEFKTRIIPTDIISDLSECLINQECEEILQICSTKGMMAGAEKLVECLLRSDKENWPKTLKLALEKERNKFSELWIVEKGIKDVETEDLEDKMETSDIQIFYQEDPECQNLSENSCPPSEVSDTNLYSPFKPRNYQLELALPAMKGKNTIICAPTGCGKTFVSLLICEHHLKKFPQGQKGKVVFFANQIPVYEQQKSVFSKYFERHGYRVTGISGATAENVPVEQIVENNDIIILTPQILVNNLKKGTIPSLSIFTLMIFDECHNTSKQHPYNMIMFNYLDQKLGGSSGPLPQVIGLTASVGVGDAKNTDEALDYICKLCASLDASVIATVKHNLEELEQVVYKPQKFFRKVESRISDKFKYIIAQLMRDTESLAKRICKDLENLSQIQNREFGTQKYEQWIVTVQKACMVFQMPDKDEESRICKALFLYTSHLRKYNDALIISEHARMKDALDYLKDFFSNVRAAGFDEIEQDLTQRFEEKLQELESVSRDPSNENPKLEDLCFILQEEYHLNPETITILFVKTRALVDALKNWIEGNPKLSFLKPGILTGRGKTNQNTGMTLPAQKCILDAFKASGDHNILIATSVADEGIDIAQCNLVILYEYVGNVIKMIQTRGRGRARGSKCFLLTSNAGVIEKEQINMYKEKMMNDSILRLQTWDEAVFREKILHIQTHEKFIRDSQEKPKPVPDKENKKLLCRKCKALACYTADVRVIEECHYTVLGDAFKECFVSRPHPKPKQFSSFEKRAKIFCARQNCSHDWGIHVKYKTFEIPVIKIESFVVEDIATGVQTLYSKWKDFHFEKIPFDPAEMSK
Q: How did the binding [1] turn out when B1 was run?
A: no binding
